Some of the results follow. These are further read-outs of the screen, such as a control signal, another cell line or another target. No call is given for them. Compounds called inactive in the main read-out are mostly missing here. Potencies come from curve fits of mixed quality, noted in brackets.

This experiment in a line: qHTS Assay for Lipid Storage Modulators in Drosophila S3 Cells.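 On cell number change: cells counted by Cell Tracker Red CMTPX staining in the red channel.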 Conditions: BODIPY lipid droplet fluorescence, 18-24 h; for cell number change: measured here: cell count max response, cells fed with added oleic acid. Put shortly: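 Drosophila S3 cells got compounds at several concentrations plus oleic acid (400 uM solution). Laser-scanning cytometry with 488 nm excitation read lipid droplets at 500-530 nm and cells at 575-640 nm. Percent activity was relative to 20 uM Triacsin C.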
A general note: In qHTS, concentration-response curves come from the screen itself.

Where [1] appears, read: measured here: cell number channel AC50, cells fed with added oleic acid.
Setting [2] is: measured here: lipid fluorescence (Fed channel) AC50, cells fed with added oleic acid.

For the molecule `Cc1nc(N)sc1C(=O)Nc1ccccc1`, the cell number change was 51.6%. For the same molecule, the AC50 under setting [1] is 0.00461 µM [rising, full curve, poor fit]. Besides, the AC50 under setting [2] is 0.291 µM [rising, full curve, poor fit]. `CCCC1C(c2ccccc2)C(C#N)(C#N)C2(C#N)CC1(N)NC2=O` (configuration not stated): the cell number change is 12.3%. Take `CCOC(=O)c1cc(-c2ccc(C)c([N+](=O)[O-])c2)nc2c1c(=O)n(C)c(=O)n2C`: the cell number change was 14.2%. On to `O=[N+]([O-])c1ccc2ncnc(Nc3ccc4c(c3)OCCO4)c2c1`, for which the cell number change was -6.62%. Regarding `COc1ccccc1/C=C/C=N/NC(=O)CC1C(=O)NN=C1C` (configuration not stated), the cell number change came out at 16.8%. For the same molecule, under setting [2], the AC50 is 25.9 µM [rising, single point]. As to `Cn1c(N)c(C(=O)COC(=O)c2ccc(Cl)nc2)c(=O)n(C)c1=O`, the cell number change was determined as 6.91%. The AC50 under setting [2] is 4.61 µM [falling, single point]. As to `CC(C)c1onc(C(=O)N2C(C)CCCC2C)c1[N+](=O)[O-]` (configuration not stated), the cell number change was -0.987%. The same measure, in the same setting: as for `CC(C)C[C@@H]1NC(=O)N(CCN2CCOCC2)C1=O`, the figure is -7.81%.

Consider `O=C(Nc1c(F)cc(F)cc1Br)C1CCCO1` (configuration not stated), for which the cell number change is -35.6%. Besides, under setting [1], the AC50 was 3.66 µM [falling, full curve]. The AC50 under setting [2] is 3.66 µM [falling, full curve]. With `COc1ccccc1CCN1CCCC(CN(C)C(=O)c2ccc3nc[nH]c3c2)C1` (configuration not stated), the cell number change worked out at 40.4%. In addition, under setting [1], the AC50 was 0.00461 µM [rising, full curve, poor fit]. As for `COc1ccc2c(c1)C(=O)CCC2c1ccccc1` (configuration not stated), the cell number change was 18.9%. Further, the AC50 under setting [2] is 6.51 µM [rising, full curve].

Consider `COc1ccc([N+](=O)[O-])cc1NC(=O)C(C)Sc1ccc(C)cc1` (configuration not stated), for which the cell number change was -30.2%. Besides, the AC50 under setting [1] is 0.0326 µM [falling, full curve, poor fit]. For the same molecule, the concentration at half-maximal activity (AC50) under setting [2] was 0.00517 µM [falling, full curve, poor fit]. `O=c1oc2cc(OCc3nn[nH]n3)ccc2c2c1CCCC2`: the cell number change was 24.6%. In the case of `CS(=O)(=O)N(CC(=O)NCc1ccco1)c1cc(C(F)(F)F)ccc1Cl`, the cell number change came to 8.43%. For the same molecule, the AC50 under setting [2] is 0.00461 µM [rising, full curve, poor fit]. `COc1ccc(CC(=O)Nc2ccc(S(=O)(=O)NCC3CCCO3)cc2)cc1` (configuration not stated): the AC50 under setting [1] was 3.66 µM [rising, single point]. For `Cc1ccc(C(=O)Nc2cc3c(oc2=O)CCCC3=O)cc1`, the cell number change was -5.17%. Besides, under setting [2], the AC50 was 1.3 µM [rising, full curve, poor fit]. For the molecule `CN(C(=O)CSc1nnc(-c2ccco2)n1C)C1CCCCC1`, the cell number change is -20.5%.

Consider `CN(C(=O)CSc1nnc(Cc2cccs2)n1C1CC1)C1CCS(=O)(=O)C1` (configuration not stated), for which the AC50 under setting [1] is 1.03 µM [falling, single point].

In the case of `O=C(CSc1ccc(Br)cc1)Nc1cccc(S(=O)(=O)N2CCOCC2)c1`, the AC50 under setting [2] was 29.1 µM [falling, partial curve, poor fit]. On to `Cc1ccc(/C([O-])=C(/C(=S)Nc2ccc(SC(F)F)cc2)[n+]2ccccc2)cc1[N+](=O)[O-]`, for which the cell number change turned out to be 2.74%. Regarding `Cc1ccc(C)c(NC(=O)c2ccc(S(=O)(=O)C(F)F)cc2)c1`, the cell number change is -37.8%. In addition, under setting [1], the AC50 was 29.1 µM [falling, single point]. The AC50 under setting [2] was 29.1 µM [falling, single point]. Consider `CSCc1ccc(C(=O)Nc2cc(C)cc(C)c2)cc1`, for which the cell number change came to 17.1%. Under setting [1], the AC50 was 6.51 µM [rising, single point]. Turning to `COc1ccc(C(NC(=O)c2ccc(-c3ccccc3)cc2)c2ccccc2)cc1` (configuration not stated), the cell number change was -21.6%. Moreover, under setting [2], the AC50 is 3.26 µM [falling, full curve]. `Cc1sc2nc(SCC(=O)c3cccs3)n(Cc3ccco3)c(=O)c2c1C`: the cell number change was found to be 11.9%. For the same molecule, under setting [2], the AC50 was 1.64 µM [rising, full curve]. With `COc1cccc(C2SCC(=O)N2c2ccc(Cl)cc2)c1OC` (configuration not stated), the cell number change was -8.44%. Consider `Cc1ccccc1Oc1ccccc1N`, for which the cell number change was -56.3%. Moreover, the AC50 under setting [1] was 23.1 µM [falling, single point]. In addition, the AC50 under setting [2] is 14.6 µM [falling, partial curve, poor fit].

Consider `COc1ccc(NC(=O)Cn2ncc(Cl)c(Cl)c2=O)cc1S(=O)(=O)N1CCOCC1`, for which the cell number change is -8.45%. In addition, the AC50 under setting [2] is 10.3 µM [falling, partial curve]. `Cc1ccc(S(=O)(=O)NCc2ccc(C(=O)NCCN(Cc3ccccc3)C(C)C)cc2)cc1`: the cell number change was -3.03%. Also, the AC50 under setting [2] is 0.82 µM [falling, full curve]. For the molecule `CCOC(=O)CNC(=O)C1(c2ccccc2)CCCC1`, the cell number change is -33.1%. Moreover, the AC50 under setting [1] is 29.1 µM [falling, single point]. Moreover, under setting [2], the AC50 is 7.31 µM [falling, partial curve].

As for `Cn1cc(C(=O)NC2C3CC4CC(C3)CC2C4)cn1` (configuration not stated), the cell number change was 3.11%. For the same molecule, the AC50 under setting [2] was 10.3 µM [falling, partial curve]. As to `CC1=NN(c2nc(-c3ccc(C)cc3)cs2)C(=O)C1N=Nc1cccc(C)c1` (configuration not stated), the cell number change is -23.2%. In addition, the AC50 under setting [2] was 14.6 µM [falling, partial curve]. On to `Fc1ccc(Cn2nnnc2C(c2ccc(Cl)cc2)N2CCSCC2)cc1` (configuration not stated), for which the cell number change was found to be 87%. Moreover, the AC50 under setting [1] was 16.4 µM [rising, single point]. Regarding `Cc1[nH]nc(-c2ccc(O)cc2O)c1Oc1ccccc1`, the cell number change is -36.7%. Also, the AC50 under setting [1] was 29.1 µM [falling, single point]. `COc1ccc(CNC(=O)c2c([S-])n(-c3ccc(C)cc3)c3cccc[n+]23)cc1`: the cell number change turned out to be 20%. The AC50 under setting [2] is 18.4 µM [rising, single point].

As for `N#C/C(=C\c1ccccc1)C(=O)N1CCC(C(N)=O)CC1`, the cell number change came out at 2.38%. As to `O=C(NCc1ccc(F)cc1)c1cnc(Cl)c(Cl)c1`, the cell number change is -13.3%. Under setting [2], the AC50 was 2.06 µM [falling, partial curve].

On to `CCC(=O)Nc1ccc(C(=O)CSc2nc3ccccc3cc2CC)cc1`, for which, under setting [2], the AC50 is 0.651 µM [rising, single point]. `COc1ccc(COc2ncnc3ccc(Br)cc23)cc1F`: the cell number change is 41.3%. Besides, under setting [1], the AC50 is 2.06 µM [rising, full curve]. In the case of `c1ccc(-c2nc(NCc3ccco3)c3oc4ccccc4c3n2)cc1`, the cell number change was -5.43%. The AC50 under setting [2] was 29.1 µM [rising, single point]. On to `COc1cc(CN2CCN(CCCc3ccccc3)C(CCO)C2)cc(OC)c1O` (configuration not stated), for which the cell number change is -2.59%. For the same molecule, the AC50 under setting [2] was 29.1 µM [falling, single point]. `CSc1ccccc1NC(=O)CN1CCN(Cc2ccccc2)CC1`: the cell number change is -12.6%. Under setting [2], the AC50 is 9.2 µM [falling, partial curve].

`CCCCNC(=O)/C(=C/c1ccco1)NC(=O)c1ccco1`: the cell number change was found to be 2.1%. Further, the AC50 under setting [2] was 7.31 µM [rising, partial curve]. Take `Oc1cccc(C(=S)N2CCC(Cc3ccccc3)CC2)c1`: the cell number change was -45.3%. Moreover, the AC50 under setting [1] was 9.2 µM [falling, partial curve]. Under setting [2], the AC50 is 13 µM [falling, partial curve]. In the case of `O=C(c1ccc([N+](=O)[O-])o1)N1CCN(c2nc3c(Cl)cccc3s2)CC1`, the cell number change came out at 68.4%. In addition, the AC50 under setting [1] is 0.326 µM [rising, full curve]. On to `O=C(NC(Cc1ccccc1)C(=O)O)/C(=C\c1ccc(Cl)cc1)NC(=O)c1ccco1` (configuration not stated), for which the AC50 under setting [2] was 0.092 µM [falling, full curve, poor fit]. For `COc1ccccc1C1CCN(Cc2ccccc2Cl)CC1`, the cell number change was -31.8%. For the same molecule, the AC50 under setting [1] was 29.1 µM [falling, single point]. For the same molecule, the AC50 under setting [2] is 32.6 µM [falling, single point].

Turning to `CCOC(=O)c1cccc(NC(=O)Nc2cc(OC)ccc2OC)c1`, the cell number change is -75.3%. Moreover, the AC50 under setting [1] was 29.1 µM [falling, single point]. As for `COc1ccc2cc(CN(Cc3ccco3)C(c3nnnn3C3CCCCC3)C(C)C)c(=O)[nH]c2c1` (configuration not stated), the AC50 by setting is: under setting [1], 5.17 µM [rising, partial curve]; under setting [2], 6.51 µM [rising, single point]. Consider `COc1ccc2ccc(O)c(CN3CCN(S(=O)(=O)c4cccc(C(F)(F)F)c4)CC3)c2c1`, for which the cell number change was -5.18%. For the same molecule, the AC50 under setting [2] is 4.11 µM [falling, single point]. As to `O=C(N/C(=C/c1ccc(Br)cc1)C(=O)N1CCCCC1)c1ccccc1F`, the cell number change was -22.6%. On the same count and under the same terms, as for `CCc1cccc(NC(=O)c2ccc(Br)o2)c1`, the figure is 7.94%.

Consider `Cc1cc(C)c(OCC(O)CN2CCN(c3ccccn3)CC2)c(C)c1` (configuration not stated), for which the cell number change was found to be 13.8%. The AC50 under setting [2] was 4.61 µM [falling, single point].

Take `O=C(COc1ccccc1)NC(=S)Nc1ccc2c3c(cccc13)CC2`: the cell number change was -9.82%. The AC50 under setting [2] is 0.326 µM [rising, full curve].

`CC(/C=C1\SC(=S)N(CCCC(=O)Nc2ccc(C(=O)O)cc2)C1=O)=C\c1ccccc1`: under setting [2], the AC50 is 8.2 µM [falling, partial curve]. Turning to `NNC(=O)c1cc(C23CC4CC(CC(C4)C2)C3)[nH]n1`, the cell number change was -30.5%. Besides, the AC50 under setting [1] is 11.6 µM [falling, partial curve, poor fit]. As to `CC(=O)Nc1ccc(NC(=O)c2ccccc2N(C)S(=O)(=O)c2ccccc2)cc1`, the cell number change is -20.8%. Also, under setting [2], the AC50 was 0.184 µM [falling, full curve, poor fit]. Take `CC(Oc1ccc(Cl)cc1)C(=O)Nc1sccc1C(N)=O` (configuration not stated): the cell number change is -0.202%. The AC50 under setting [2] is 0.116 µM [rising, full curve, poor fit]. With `COc1ccc(C(=O)NC2(C(F)(F)F)NC(=O)N(CCCc3ccccc3)C2=O)cc1OC` (configuration not stated), the cell number change is 6.93%. Also, the concentration at half-maximal activity (AC50) under setting [2] was 6.51 µM [rising, partial curve]. For `COc1ccccc1-c1nc(C#N)c(N2CCc3ccccc3C2)o1`, the cell number change came out at 14.7%. Under setting [2], the AC50 is 1.64 µM [rising, partial curve]. For the molecule `COc1ccc(C(C)=O)cc1COC(=O)c1cc(C)nc2ccccc12`, the AC50 under setting [1] is 5.17 µM [rising, single point]. `Oc1ccc(-c2n[nH]c(C(F)(F)F)c2-c2ccccc2)c(O)c1`: the cell number change was -46.4%. Moreover, the AC50 under setting [1] was 14.6 µM [falling, single point]. In addition, the AC50 under setting [2] is 13 µM [falling, partial curve]. Consider `Cc1ccc(NC(=O)C2CCN(c3nc(C)cc(C)n3)CC2)cc1`, for which the cell number change amounted to 15.3%. In addition, the AC50 under setting [2] is 0.411 µM [falling, single point]. Turning to `O=C(Nc1ccccc1C(=O)O)c1cccc(NC(=O)c2ccccc2Br)c1`, the cell number change is 44.9%. Under setting [1], the AC50 was 25.9 µM [rising, single point]. In addition, the AC50 under setting [2] is 29.1 µM [rising, single point].

The AC50 is the concentration giving half of the maximal activity seen. A higher AC50 goes with activity only at high concentration.

The record behind these values is PubChem BioAssay AID2685 (National Center for Advancing Translational Sciences (NCATS), 2010).
